Data published in PubChem BioAssay AID540256 (National Center for Advancing Translational Sciences (NCATS), 2011).
About 3,700 (1.2%) of roughly 300,000 compounds were called active. Inconclusive means that the source gave no clear call. Such entries were picked first, then a sample of the others. Calls come from the whole dose curve; tested in HEK293 cells. Where the call is inconclusive, the potency comes from a doubtful curve fit.

Experiment: qHTS for Inhibitors of binding or entry into cells for Lassa Virus; note: nearly all actives have a fitted effect of over 50% in size
Conditions: Lassa virus pseudotype entry inhibition, cell reporter; activity change, negative = inhibition: at 37.9 µM (top of the series) unless noted
% is set by controls: 0 for no effect and ±100 for the full control effect; potency is the fitted concentration of half-maximal effect.

Row | SMILES | Potency | activity change, negative = inhibition
1 | CCOC(=O)c1sc2ccccc2c1OC(=O)c1ccc(C)cc1 | active: 4.47 µM | 
2 | CNC(=O)Oc1cc(C)c(C=Cc2cncc(C(=O)NC)c2)c(C)c1 | inconclusive: 6.28 µM [inhibitor, single point] | 
3 | CC(=NCc1ccco1)c1c(O)n(C2CCCCC2)c(=O)[nH]c1=O | inactive | 
4 | Cc1c(Cl)cccc1NC(=O)CSc1nc(=O)n(Cc2cccnc2)c2c1CCC2 | inactive | 
5 | O=C1C2C3CCCC3=C3CCCC3C2C(=O)N1c1ccc(F)cc1 (centres undefined) | inconclusive: 0.316 µM [activator, full curve, poor fit] | 
6 | CC(C1CC2CCC1C2)n1c(-c2cccs2)n[nH]c1=S (centres undefined) | inconclusive: 6.31 µM [inhibitor, single point] | 
7 | C/C(=N\NC(=O)C1CCCN(S(=O)(=O)c2ccccc2)C1)c1cccnc1 (centres undefined) | inactive | 
8 | O=C(COC(=O)C1CC(O)CN1S(=O)(=O)c1ccc(Cl)cc1)c1ccccc1 (centres undefined) | inactive | 
9 | Cc1cc(N2CCOCC2)nc2ccc(NC(=O)CCC(=O)N3CCN(c4cccc(C(F)(F)F)c4)CC3)cc12 | inconclusive: 35.5 µM [inhibitor, single point] | 
10 | Clc1ccc(-c2n[nH]c3c2CCC3)cc1Cl | inconclusive: 35.5 µM [inhibitor, single point] | 
11 | CC(CNC(=O)c1cc(COc2ccc3ncccc3c2)on1)c1ccccc1 (centres undefined) | inconclusive: 15.8 µM [inhibitor, single point] | 
12 | CCCc1ccc2oc(C(=O)NCCN3CCCC(O)C3)c(C)c2c1 (centres undefined) | inconclusive: 31.6 µM [activator, partial curve, poor fit] | 
13 | CCOc1ccc(-c2cc3nc(C4CCN(C(=O)OC(C)(C)C)CC4)c(C(=O)Nc4ccc(C)cc4C)cn3n2)cc1 | inconclusive: 35.5 µM [inhibitor, single point] | 
14 | C[C@@H]1C[C@H]2[C@@H](C)C(=O)N3[C@@H](C[C@@H](C)[C@@H]3c3ccccc3)[C@@H](C)C(=O)N2[C@H]1c1ccccc1 | inconclusive: 0.0008 µM [inhibitor] | 
15 | O=C(NCCc1c[nH]c2ccccc12)C(=O)NCC1OCCN1S(=O)(=O)c1ccccc1 (centres undefined) | inconclusive: 11.2 µM [inhibitor, partial curve, poor fit] | 
16 | O=C(N/N=C(\CC(=O)c1cccs1)C(F)(F)F)c1ccncc1 | inconclusive: 3.98 µM [inhibitor, full curve, poor fit] | 
17 | CC(C)c1nc(N2CCN(C(=O)c3ccccc3)CC2)c(C#N)c2c1COC(C)(C)C2 | inconclusive: 25.9 µM [inhibitor, partial curve, poor fit] | 
18 | Cc1cccc(-n2c(SCC(=O)c3ccccc3)nnc2-c2ccc(Br)cc2)c1 | inactive | 
19 | CN(O)/C=c1/ccc2c(n1)C(=O)C=CC=2 | inconclusive: 11.2 µM [inhibitor, single point] | 
20 | Nc1nnc(-c2ccc(Cl)cc2Cl)s1 | inconclusive: 5.62 µM [inhibitor, single point] | 
21 | CCc1nn2c(=O)c(S(=O)(=O)Nc3cccc(F)c3)c(C)nc2s1 | inconclusive: 3.16 µM [inhibitor, partial curve, poor fit] | 
22 | COC(=O)c1cc(NC(=O)c2cccc([N+](=O)[O-])c2C)ccc1Cl | inconclusive: 35.5 µM [inhibitor, single point] | 
23 | Cc1ccc(C(=O)NCCN2CCCC2)cc1 | inactive | 

Row | SMILES | Potency | activity change, negative = inhibition
24 | O=C(c1ccccc1)N1N=C(c2ccccc2)CC1c1ccccc1[N+](=O)[O-] (centres undefined) | inactive | 
25 | CCOc1cc(/C=N/NC(=O)Cn2nc([N+](=O)[O-])cc2C)cc(Br)c1OCc1ccccc1C | inconclusive: 29.1 µM [inhibitor, single point] | 
26 | COCCn1c(SCC(=O)c2cc(C)n(C)c2C)nc2ccccc2c1=O | inconclusive: 35.5 µM [inhibitor, single point] | 
27 | COc1ccc(C(=O)NCCNC(=O)c2cnccn2)cc1OC | inactive | 
28 | CCc1ccccc1N(C(=O)c1snc(C(N)=O)c1N)C(C(=O)NCC1CCCO1)c1ccc(N(C)C)cc1 (centres undefined) | inconclusive: 3.98 µM [inhibitor, partial curve, poor fit] | 
29 | COCCn1nnnc1C(c1ccc(OC)cc1)N1CCN(C(=O)c2ccco2)CC1 (centres undefined) | inconclusive: 5.62 µM [inhibitor, single point] | 
30 | CCOC(=O)c1ccc(S(=O)(=O)N2CC(=O)Nc3ccccc32)cc1 | inconclusive: 29.1 µM [inhibitor, single point] | 
31 | COc1ccc(N(C(=O)c2ccncc2)S(=O)(=O)c2cccc([N+](=O)[O-])c2)cc1 | inactive | 
32 | CCn1c(SCC(=O)Nc2cc(C)on2)nnc1-c1cccc(C)c1 | inactive | 
33 | CC(C)(C)OC(=O)N1CCC(c2c(C(=O)N3CCN(C(=O)c4ccco4)CC3)cnn2-c2ccccc2)CC1 | inactive | 
34 | O=C(Nc1ccc(C(=O)Oc2ccccc2)c(O)c1)c1ccco1 | inactive | 
35 | O=C(Nc1ccccc1F)c1ccc(C(=O)c2ccccc2)cc1 | inactive | 
36 | Cc1ccc(NC(=O)Cc2nnc(N)s2)cc1 | inconclusive: 10 µM [activator, partial curve, poor fit] | 
37 | CC(C)c1nnc(NC(=O)CC(=O)Nc2ccccc2C(=O)O)s1 | active: 6.31 µM | 
38 | NS(=O)(=O)c1ccc(N2CCCC2=O)c([N+](=O)[O-])c1 | inactive | 
39 | Cc1cccc(NC(=O)CN2C(=S)NC(C)(C)CC2C)c1 (centres undefined) | inconclusive: 6.31 µM [inhibitor, single point] | 
40 | Cc1ccc(-n2[nH]c(C)c(/C=N/N3C(=O)c4cccc5cccc(c45)C3=O)c2=O)cc1 | inconclusive: 35.5 µM [inhibitor, single point] | 
41 | COc1cc(NC(=O)c2ccc(NC(=O)N3CCSc4ncccc43)cc2)cc(OC)c1 | inactive | 
42 | COc1ccc(CCNC(=O)c2ccc(CNS(=O)(=O)c3ccccc3)cc2)cc1OC | inconclusive: 35.5 µM [inhibitor, single point] | 
43 | COc1cc(/C=N/n2cnnc2)ccc1OCc1ccccc1 | inactive | 
44 | CC(C)(C)OC(=O)COc1cc(O)c2c(=O)cc(-c3ccccc3)oc2c1 | inconclusive: 8.2 µM [inhibitor, partial curve, poor fit] | 
45 | Cc1ccc(Cl)cc1N1CCN(C(=O)CN(c2ccccc2)S(=O)(=O)N(C)C)CC1 | inactive | 
46 | CC(Oc1ccccc1)C(=O)Nc1cccc(F)c1 (centres undefined) | inconclusive: 29.1 µM [activator, single point] | 

An excerpt of these results, field by field:
CCCc1ccc2oc(C(=O)NCCN3CCCC(O)C3)c(C)c2c1 (centres undefined)
  Potency: inconclusive: 31.6 µM [activator, partial curve, poor fit]
COCCn1c(SCC(=O)c2cc(C)n(C)c2C)nc2ccccc2c1=O
  Potency: inconclusive: 35.5 µM [inhibitor, single point]
CCn1c(SCC(=O)Nc2cc(C)on2)nnc1-c1cccc(C)c1
  Potency: inactive

Following part:

Row | SMILES | Potency | activity change, negative = inhibition
47 | O=C(NCCO)C1CCN(C(=O)c2ccc(-c3ccccc3)cc2)CC1 | inconclusive: 0.112 µM [inhibitor, full curve, poor fit] | 
48 | Cc1ccc(NNC(=O)c2ccno2)c(C)c1 | inconclusive: 5.01 µM [inhibitor, full curve, poor fit] | 
49 | O=C(Nc1ccc(Cl)c([N+](=O)[O-])c1)ONC1=NCCCCC1 | inconclusive: 1 µM [activator, partial curve, poor fit] | 
50 | COc1ccccc1CCNC1C2CC3CC(C2)CC1C3 (centres undefined) | inconclusive: 0.0651 µM [activator, full curve, poor fit] | 
51 | O=C(c1ccc(CS(=O)c2ccccc2Cl)o1)N1CCN(c2cccc(Cl)c2)CC1 (centres undefined) | inconclusive: 39.8 µM [inhibitor, partial curve, poor fit] | 
52 | COc1ccc(C(CNC(=O)c2cccc(N(C)C)c2)N2CCCC2)cc1 (centres undefined) | inactive | 
53 | COc1ccccc1N1CCN(C(=O)COc2ccc(Cl)cc2Br)CC1 | inconclusive: 11.2 µM [inhibitor, partial curve, poor fit] | 
54 | CC(CNC(=O)CCCn1c(=O)c2cccn2c2cccnc21)c1ccccc1 (centres undefined) | inactive | 
55 | O=C(Nc1ccc(Cl)cc1)Nc1ccc(N2CCCC2)c(S(=O)(=O)Nc2ccccc2Cl)c1 | active: 5.01 µM | 
56 | COc1ccc(NC(=O)c2c(C)oc3ccc(O)c(CN4CCN(Cc5ccccc5)CC4)c23)cc1 | inconclusive: 15.8 µM [inhibitor, partial curve, poor fit] | 
57 | O=[N+]([O-])c1ccc(N2CCN(c3cccc(Cl)c3)CC2)cn1 | inconclusive: 15.8 µM [inhibitor, partial curve, poor fit] | 
58 | Cc1cc(NS(=O)(=O)c2ccc(NC(=O)Nc3ccccc3)cc2)no1 | inconclusive: 29.1 µM [activator, single point] | 
59 | C=CCN1CCc2c(cc(O)c(O)c2Br)[C@@H](c2ccccc2)C1 | inconclusive: 5.17 µM [inhibitor, full curve] | 
60 | CCOC(=O)C1=C(c2ccccc2)N2CCS(=O)(=O)N=C2S1 | inactive | 
61 | C=CCc1cc(C)ccc1OCCn1ccnc1 | inactive | 
62 | CCOC(=O)c1ccc(N2C(=O)c3n[nH]c(-c4cccs4)c3C2c2ccc(Cl)cc2Cl)cc1 (centres undefined) | inconclusive: 14.1 µM [inhibitor, single point] | 
63 | COc1ccc(/C=C(/C#N)c2nc(-c3ccc(Br)cc3)cs2)cc1 | inconclusive: 11.2 µM [inhibitor, partial curve, poor fit] | 
64 | CCOC(=O)c1cnc2ccc(OCC)cc2c1N(C)Cc1ccccc1 | inactive | 
65 | CCOc1ccc(NC(=O)CCS(=O)(=O)c2ccc(Br)cc2)cc1 | inactive | 
66 | COc1ccc(C(=O)Nc2cc(OCc3ccccc3)c(Cl)cc2Cl)cc1 | inactive | 
67 | O=S1(=O)N=C(N/N=C/C=C/c2ccccc2)c2ccccc21 | inconclusive: 35.5 µM [inhibitor, single point] | 
68 | COc1ccc(C(C(=O)NCc2ccccc2)N(C(=O)c2snc(C(N)=O)c2N)C2CCCC2)cc1 (centres undefined) | inactive | 
69 | Cc1ccc(N2C(=O)CC(Sc3ncn[nH]3)C2=O)cc1 (centres undefined) |  | inconclusive: 2.43% [activator]
